Test results reported in patent publication US20040110821A1, “GAL3 receptor antagonists for the treatment of affective disorders” (priority 2002, published 2004).

Tested on: NE transporter
Assay: Binding at native NE transporter
Conditions: Ki at rNE Uptk divided by Ki at human GAL3

Structure (SMILES)	selectivity ratio rNE Uptk
Cc1ccc(Nc2cc(N3CCCCC3)nc(N(C)CCc3c[nH]c4ccccc34)n2)cc1 [Example 11]	>100
CN(CCc1c[nH]c2ccccc12)c1nc(Nc2ccc(F)c(F)c2)cc(N2CCCCC2)n1 [Example 15]	>100
COc1cccc(Nc2cc(N3CCCCC3)nc(N(C)CCc3c[nH]c4ccccc34)n2)c1 [Example 17]	>100
Cc1ccc(Nc2cc(N3CCCCC3)nc(N(C)CCc3ccccc3)n2)cc1 [Example 22]	>100
Cc1ccc(Nc2cc(N3CCCCC3)nc(N3CCN(c4ncccc4C(F)(F)F)CC3)n2)cc1 [Example 34]	>100
Cc1ccc(Nc2cc(N(C)C)nc(N(C)CCc3c[nH]c4ccccc34)n2)cc1 [Example 77]	>100
O=C1C(=Nc2cccc(C(F)(F)F)c2)c2ccccc2N1c1ccccc1 [Example 92, 1-PHENYL-3-[[3-(TRIFLUOROMETHYL)PHENYL]IMINO]-1,3-DIHYDRO-2H-INDOL-2-ONE]	>100
O=C1C(=Nc2cccc(Cl)c2)c2ccccc2N1c1ccccc1 [Example 94, 3-[(3-CHLOROPHENYL)IMINO]-1-PHENYL-1,3-DIHYDRO-2H-INDOL-2-ONE]	>30
O=C1C(=Nc2ccc(C(F)(F)F)cc2)c2ccccc2N1c1ccccc1 [Example 95, 1-PHENYL-3-[[4-(TRIFLUOROMETHYL)PHENYL]IMINO]-1,3-DIHYDRO-2H-INDOL-2-ONE]	>100
O=C1C(=Nc2ccc(Cl)cc2)c2ccccc2N1c1ccccc1 [Example 97, 3-[(4-CHLOROPHENYL)IMINO]-1-PHENYL-1,3-DIHYDRO-2H-INDOL-2-ONE]	>30
O=C1C(=Nc2ccc(Br)cc2)c2ccccc2N1c1ccccc1 [Example 98, 3-[(4-BROMOPHENYL)IMINO]-1-PHENYL-1,3-DIHYDRO-2H-INDOL-2-ONE]	>100
